Data as given in article PMC8534458.
No constants are given. Whether binding was seen depends on the method and setting. Binding seen in cells or lysates may run through a third protein. Some entries that bind do so weakly or less than the wild type. One block for each substance: values may come before it.

The chains behind the UniProt entries cited, without tags or fusion partners. Residues count along the entry.
UniProt Q8BWG9: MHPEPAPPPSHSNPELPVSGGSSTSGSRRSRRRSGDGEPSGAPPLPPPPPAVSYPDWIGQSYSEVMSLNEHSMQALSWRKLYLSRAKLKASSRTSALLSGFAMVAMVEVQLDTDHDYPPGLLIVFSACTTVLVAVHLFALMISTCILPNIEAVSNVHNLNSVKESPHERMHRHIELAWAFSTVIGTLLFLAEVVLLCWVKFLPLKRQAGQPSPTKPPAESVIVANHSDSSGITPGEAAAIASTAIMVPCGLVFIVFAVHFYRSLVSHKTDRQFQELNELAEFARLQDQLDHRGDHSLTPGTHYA
UniProt P70302, residues 23-685: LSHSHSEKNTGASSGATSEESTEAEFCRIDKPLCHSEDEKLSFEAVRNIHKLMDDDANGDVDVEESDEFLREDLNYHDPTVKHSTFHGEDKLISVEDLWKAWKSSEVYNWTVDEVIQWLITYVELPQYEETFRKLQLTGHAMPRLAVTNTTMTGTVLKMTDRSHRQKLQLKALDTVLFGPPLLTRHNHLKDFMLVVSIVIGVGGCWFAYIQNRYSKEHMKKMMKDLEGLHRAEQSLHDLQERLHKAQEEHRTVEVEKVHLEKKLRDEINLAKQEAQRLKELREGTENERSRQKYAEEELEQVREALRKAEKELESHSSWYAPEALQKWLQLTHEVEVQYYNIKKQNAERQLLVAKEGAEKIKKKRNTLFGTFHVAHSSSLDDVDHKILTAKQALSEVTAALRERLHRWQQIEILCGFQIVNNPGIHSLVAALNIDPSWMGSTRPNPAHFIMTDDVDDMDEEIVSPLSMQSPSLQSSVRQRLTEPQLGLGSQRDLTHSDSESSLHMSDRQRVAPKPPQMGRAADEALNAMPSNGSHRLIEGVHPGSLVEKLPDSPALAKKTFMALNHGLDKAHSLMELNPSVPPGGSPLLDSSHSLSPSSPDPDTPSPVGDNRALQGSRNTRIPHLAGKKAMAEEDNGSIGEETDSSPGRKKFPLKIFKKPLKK

Tests used:
[1] = target: Orai1-CFP (UniProt Q8BWG9); test: FRET or BRET; LR73 cells with Orai1-CFP and STIM1-YFP in a 96-well plate, stimulated with apoptotic or live thymocytes; FRET read every 10 s with a microplate reader (FlexStation 3)
[2] = target: Orai1 (endogenous, BMDMs) (mouse (endogenous in BMDMs)) (UniProt Q8BWG9); test: co-IP; lysates of BMDMs (WT or Mertk-/- mice), with or without apoptotic cells for 10 min; anti-Orai1 antibody and protein A/G agarose beads 2 h; immunoblot for STIM1
[3] = target: FLAG-tagged Orai1 (UniProt Q8BWG9); test: co-IP; LR73 cells transfected with Orai1-FLAG and STIM1; cells incubated 10 min with apoptotic or live thymocytes, apoptotic cell supernatants, PS or PC liposomes, with or without cytochalasin D (1 µM), bafilomycin A (1 µM), Mfge8 D89E or Anxa5; lysis in 1% Triton X-100, 150 mM NaCl, 50 mM Tris pH 7.6; anti-FLAG agarose beads 2 h; immunoblot

binding [1]: binds
Substance: STIM1-YFP (from UniProt P70302 23-685)

binding [2]: binds
Substance: STIM1 (endogenous, BMDMs) (from UniProt P70302 23-685)

binding [3]: binds
Substance: STIM1 (overexpressed in LR73 cells) (from UniProt P70302 23-685)
